From PubChem BioAssay AID2685 (National Center for Advancing Translational Sciences (NCATS), 2010)
The list shows a part of the results. The main result of the screen is listed elsewhere. These columns were measured beside it and carry no call. Compounds called inactive in the main read-out are mostly missing here. Words in brackets tell the shape of the fitted curve; partial curves, single points and poor fits give uncertain potencies.

Experiment: qHTS Assay for Lipid Storage Modulators in Drosophila S3 Cells;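 as to cell number change: cells counted by Cell Tracker Red CMTPX staining in the red channel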
Settings: BODIPY lipid droplet fluorescence, 18-24 h; for cell number change: measured here: cell count max response, cells fed with added oleic acid
Method in brief: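 Laser-scanning cytometry quantifies lipid droplet accumulation (500–530 nm total intensity; droplet/cell object ratio) in oleic acid-fed (400 uM added) Drosophila S3 cells treated with a concentration series. 20 uM Triacsin C defined 100% inhibition.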

[1] = measured here: lipid fluorescence (Fed channel) AC50, cells fed with added oleic acid
[2] = measured here: cell number channel AC50, cells fed with added oleic acid

SMILES | AC50 [1] | cell number change | AC50 [2]
Cc1ccccc1/C=C1\Sc2ccc(C(=O)N3CCN(c4ccccn4)CC3)cc2N(C)C1=O | 1.84 µM [falling, partial curve] |  | 
CC(C)CCOP(=O)(c1ccc(N(C)C)cc1)C(O)c1ccc(N(C)C)cc1 (centres undefined) | 20.6 µM [falling, partial curve, poor fit] | -5.56% | 
O=C(NC1CCN(C(=O)Nc2ccccc2Cl)CC1)c1ccccc1 | 6.51 µM [falling, partial curve, poor fit] | -36.4% | 0.517 µM [falling, full curve, poor fit]
O=C(NN/C(=N/S(=O)(=O)c1ccc(Cl)cc1)c1ccccc1)c1ccc(O)cc1 | 29.1 µM [rising, single point] | 11.3% | 0.731 µM [falling, full curve, poor fit]
Cc1ccccc1NC(=O)c1ccc(S(=O)(=O)N2CCCC2)cc1 | 0.00517 µM [rising, full curve, poor fit] | -6.72% | 
CN(C)c1ccc(CNc2ncnc3sccc23)cc1 | 4.11 µM [rising, full curve] | -1.35% | 
C=CCC(NCc1ccco1)c1ccc(OC)cc1OC (centres undefined) | 3.26 µM [falling, partial curve, poor fit] | -13.4% | 
Cc1cc(N=Nc2c(O)c3ccccc3[nH]c2=O)ccc1N=Nc1ccc(C(=O)N(C)C)cc1 | 6.51 µM [falling, partial curve] |  | 
CCOC(=O)CCCNC(=O)COC(=O)c1cccc(F)c1 |  | -14.2% | 2.31 µM [falling, partial curve, poor fit]
C/C(=N/NC(=O)c1ccc2c(c1)OCO2)c1cccc(NC(=O)C(C)(C)C)c1 | 0.517 µM [rising, full curve, poor fit] | 18.7% | 
Cc1ccc(SCC(=O)Nc2nnc(-c3ccco3)o2)cc1 |  | -30.6% | 
COc1ccc(C(=O)CSc2nnc(-c3ccco3)c(-c3ccco3)n2)cc1 | 29.1 µM [falling, single point] | -12.4% | 
COCCN(C(=O)C1=COCCO1)c1c(N)n(CC(C)C)c(=O)[nH]c1=O | 29.1 µM [rising, single point] | -10.3% | 
COc1ccc(NC(C)=O)cc1NC(=O)CSc1nnc(C2CCCCC2)n1N | 29.1 µM [falling, single point] | -1.98% | 
Cc1ccc(NC(=O)NC(=O)CN2C(=O)NC3(CCCCCCC3)C2=O)c(C)c1 | 29.1 µM [falling, single point] | -36% | 16.4 µM [falling, single point]
Cc1ccsc1/C=C1\SC(N2CC(C)OC(C)C2)=NC1=O (centres undefined) | 4.11 µM [rising, full curve] | 31.5% | 8.2 µM [rising, partial curve]
Cc1c(C(O)CN2CCC(C(N)=O)CC2)c2ccccc2n1C (centres undefined) | 3.66 µM [falling, single point] | -7% | 6.51 µM [falling, single point]
O=C(NC1CCC(O)CC1)c1cc(-c2ccco2)nc2ccccc12 (centres undefined) |  | 40.5% | 25.9 µM [rising, partial curve]
O=C1CC(N2CCN(S(=O)(=O)c3ccccc3F)CC2)C(=O)N1c1ccccc1Cl (centres undefined) |  | 10.5% | 2.59 µM [falling, single point]

SMILES | AC50 [1] | cell number change | AC50 [2]
Cc1cc2ccccc2c(=O)n1CC(=O)Nc1ccc2c(c1)OCCO2 | 3.26 µM [falling, partial curve] |  | 2.06 µM [falling, partial curve]
O=C(COC(=O)c1cccs1)NCc1ccc2c(c1)OCO2 | 0.0517 µM [rising, full curve, poor fit] | -9.77% | 
COc1nccc(C(F)(F)F)c1C(=O)NC(=O)Nc1ccccc1 | 2.59 µM [rising, full curve] | 30.7% | 
CN(C)S(=O)(=O)N1CCN(c2ccc(Cl)cc2)CC1 |  | -20.9% | 
Cc1noc(NS(=O)(=O)c2ccc(NC(=O)C(CC(C)C)N3C(=O)c4ccccc4C3=O)cc2)c1C (centres undefined) | 0.731 µM [rising, single point] | 9.59% | 
CC[n+]1c(/C=C/c2cc([N+](=O)[O-])ccc2O)ccc2ccccc21 |  | 0.676% | 
CSc1ccccc1-c1nnc(-c2ccc(Cl)c(Cl)c2)o1 |  | 10.4% | 
O=C(N/N=C/c1ccc([N+](=O)[O-])cc1)c1ccc(NS(=O)(=O)c2cccs2)cc1 | 0.82 µM [rising, full curve, poor fit] | -10.2% | 
Cc1cc(Sc2nc(N)ncc2[N+](=O)[O-])ncn1 | 29.1 µM [falling, single point] | -59.2% | 29.1 µM [falling, single point]
O=S(=O)(c1ccc(Cl)cc1)N1CCN(Cc2c[nH]c3ccccc23)CC1 |  | 34% | 11.6 µM [rising, single point]
O=C(COC(=O)CNC(=O)c1cccs1)Nc1ccc(C(F)(F)F)cc1[N+](=O)[O-] |  | -1.2% | 
COc1ccc(C)cc1NC(=O)C1C2C=CC(C2)C1C(=O)O (centres undefined) | 3.66 µM [falling, full curve] | 2.08% | 
CCOc1ccccc1-c1noc(CCCC(=O)NC2CCCCC2)n1 |  | -47.6% | 0.116 µM [falling, full curve, poor fit]
O=C(CCl)Nc1c(C(=O)Nc2ccc3c(c2)OCCO3)oc2ccccc12 | 1.3 µM [falling, full curve, poor fit] | -10.4% | 
COC(=O)c1ccsc1NC(=O)C1=COCCO1 |  | 0.759% | 
COc1ccc(-c2cc(C3CCN(Cc4ccc([N+](=O)[O-])cc4)CC3)[nH]n2)cc1 | 0.00461 µM [rising, full curve, poor fit] | 21.6% | 
Cc1cc(=O)n2nc(N3CCC(C(=O)NCc4cccc(Cl)c4)CC3)sc2n1 | 29.1 µM [falling, single point] | -11.2% | 2.91 µM [rising, single point]
Cc1ccc(CNC(=O)c2cc3c(=O)n(C)c4ccccc4c3n2C)cc1 | 1.03 µM [rising, full curve] | -5.1% | 1.46 µM [rising, partial curve]
CCCCCCCNC(=O)C1(CC2CC(c3ccc(Cl)cc3)=NO2)CCN(C(=O)OC(C)(C)C)CC1 (centres undefined) | 29.1 µM [falling, single point] | 25.7% | 

Given comma-delimited: entries from further up
SMILES,AC50 [1],cell number change,AC50 [2]
Cc1cc2ccccc2c(=O)n1CC(=O)Nc1ccc2c(c1)OCCO2,"3.26 µM [falling, partial curve]",,"2.06 µM [falling, partial curve]"
CCCCCCCNC(=O)C1(CC2CC(c3ccc(Cl)cc3)=NO2)CCN(C(=O)OC(C)(C)C)CC1 (centres undefined),"29.1 µM [falling, single point]",25.7%,

Later entries:

SMILES | AC50 [1] | cell number change | AC50 [2]
N#CCCN1CCN(CCC#N)CC1 |  | -25.1% | 0.0291 µM [falling, full curve, poor fit]
COc1ccccc1C(=O)N/C(=C\c1cn(S(=O)(=O)N(C)C)c2ccccc12)C(=O)N1CCOCC1 | 2.31 µM [rising, full curve] |  | 
CN(C(=O)c1ccc2c(=O)n3c(nc2c1)CCCCC3)c1cccc(Cl)c1 |  | -26.2% | 0.231 µM [falling, full curve, poor fit]
COc1ccc(C(=O)N2CCN(c3nnnn3-c3ccccc3)CC2)cc1OC | 1.64 µM [rising, partial curve] | -17.5% | 
COc1ccc(C2=NN(C(=O)CSc3nnc(C)c(=O)n3N)C(c3ccco3)C2)cc1 (centres undefined) | 0.58 µM [rising, full curve] |  | 0.411 µM [rising, full curve]
Cc1ccc(NC(=O)N2CCC(C(=O)NCc3ccc(F)cc3)CC2)cc1 | 1.03 µM [falling, full curve] | 0.585% | 
O=C(O)c1cc2ccccc2n1-c1ccccc1 | 18.4 µM [falling, partial curve] | -26.6% | 2.59 µM [falling, full curve, poor fit]
CC(NC(=O)c1ccco1)C(=O)N1CCc2ccccc2C1 (centres undefined) |  | 31.8% | 14.6 µM [rising, partial curve, poor fit]
COc1ccc(OC)c(NC(=O)COC(=O)CNC(=O)c2ccc(OC)c(OC)c2)c1 | 6.51 µM [falling, single point] | 41.7% | 6.51 µM [falling, single point]
COc1ccc(-c2coc3c(C)c4oc(=O)c(CC(=O)O)c(C)c4cc23)cc1 | 6.51 µM [falling, single point] | -4.17% | 
COc1ccc2c(c1OC)C[N+]1([O-])CCc3cc4c(cc3C1C2)OCO4 (centres undefined) | 5.17 µM [rising, full curve, poor fit] | 9.49% | 
O=C(CN1CCC(O)(c2ccc3c(c2)OCO3)CC1)OC1CCCCC1 |  | 17.8% | 0.651 µM [falling, partial curve]
CCCn1c(N)c(C(=O)CSc2nc3ncc(Cl)cc3[nH]2)c(=O)n(C)c1=O | 0.164 µM [falling, full curve, poor fit] | 24.5% | 
CCN(CC)c1ccc(Nc2cc3n(c(=O)n2)CCc2cc(OC)c(OC)cc2-3)cc1 |  | 5.56% | 
CC(C)(C)C(=O)O/N=C(\N)c1ccc([N+](=O)[O-])s1 | 25.9 µM [falling, single point] | -17.3% | 
O=C1CN2NC(=S)N(c3ccc(Cl)cc3)C2=CN1c1ccc(Cl)cc1 | 23.1 µM [falling, single point] | -6.37% | 
Cn1c(C(=O)OCC(=O)NCc2ccc(F)cc2)cc2occc21 |  | 63% | 4.11 µM [rising, partial curve, poor fit]
COc1ccc(CCn2c(N)cc(=O)[nH]c2=S)cc1OC | 6.51 µM [rising, single point] |  | 6.51 µM [rising, single point]
O=C(COC(=O)c1n[nH]c2ccccc12)NC(=O)NC12CC3CC(CC(C3)C1)C2 |  | -34% | 0.58 µM [falling, full curve]
